Test results reported in US9204650B2, “N-(1,2,5-oxadiazol-3-yl)-, N-(1,3,4-oxadiazol-2-yl)-, N-(tetrazol-5-yl)-, and N-(triazol-5-yl) aryl carboxylic acid amides and use thereof as herbicides” (BAYER INTELLECTUAL PROPERTY GMBH, priority 2011, dated 2015).
Some entries share one result that the patent states for a list of compounds.

Assays:
Format in all cases: in vivo
Stellaria media [1] = test: Pre-emergence herbicidal action against weed plants; conditions: application rate 320 g/ha, visual assessment after 3 weeks vs untreated controls
Veronica persica = test: as above; conditions: application rate 320 g/ha, visual assessment after 3 weeks vs untreated controls
Stellaria media [2] = test: Post-emergence herbicidal action against weed plants; conditions: application rate 80 g/ha, visual assessment after about 3 weeks vs untreated controls
Amaranthus retroflexus = test: as above; conditions: application rate 80 g/ha, visual assessment after about 3 weeks vs untreated controls

CCN(C(=O)c1ccc(C(F)(F)F)c(S(C)(=O)=O)c1C)c1nnnn1C [A-2, N-ethyl-2-methyl-3-(methylsulfonyl)-N-(1-methyl-1H-tetrazol-5-yl)-4-(trifluoromethyl)benzamide]
at least 80%: efficacy (herbicidal activity in percent) (Stellaria media [1]) | efficacy (herbicidal activity in percent) (Veronica persica) | efficacy (herbicidal action in percent) (Stellaria media [2]) | efficacy (herbicidal action in percent) (Amaranthus retroflexus)

C=CCN(C(=O)c1ccc(C(F)(F)F)c(S(C)(=O)=O)c1C)c1nonc1C [C-1, N-allyl-2-methyl-N-(4-methyl-1,2,5-oxadiazol-3-yl)-3-(methylsulfonyl)-4-(trifluoromethyl)benzamide]
at least 80%: efficacy (herbicidal activity in percent) (Stellaria media [1]) | efficacy (herbicidal activity in percent) (Veronica persica) | efficacy (herbicidal action in percent) (Stellaria media [2]) | efficacy (herbicidal action in percent) (Amaranthus retroflexus)
